# Assay results from patent publication US11180485B2, “Diaryl-azole compound and formulation for controlling harmful organism” (Nippon Soda Co., Ltd., priority 2016, dated 2021).
# Some results were stated once for a whole list of compounds, not compound by compound.
# System: Mythimna separata (Pseudaletia separata)
# Test: Test Example 11: efficacy test against Mythimna separata (Pseudaletia separata), seed treatment test
# Type: in vivo
# Conditions: seed treatment: 0.1 g compound in 2 mL acetone on 10 g wheat seeds; larvae released after 7 days; counted after 3 days
structure (smiles),measurement,value
"CCS(=O)(=O)c1ccc(-n2cnc(C)n2)nc1-c1ncc(-c2ccc(OC(F)(F)F)cc2)n1C [Compound No. a-8, 3-(ethylsulfonyl)-6-(3-methyl-1H-1,2,4-triazol-1-yl)-2-(1-methyl-5-(4-(trifluoromethoxy)phenyl)-1H-imidazol-2-yl)pyridine]",controlling rate against first-instar larvae of Mythimna separata (Pseudaletia separate),≥ 80%
